# In the supplement of paper PMC8728848:
# The other results are listed elsewhere or left out.
# How the values were obtained:
# Experiment in all cases: glycan array binding signal (z-score within array); higher = stronger binding
# Details in all cases: glycan notation: IUPAC condensed, linker removed
# [1] = biological target: Neu5Ac(a2-3)Gal
# Outline: (§1)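 The binding signal is a Z-score computed within each array and averaged over linkers. Arrays of the same protein sequence at different concentrations or buffers were also averaged together. Data originate from 3228 arrays in the Consortium for Functional Glycomics database, kept only where the protein sequence was available.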
# [2] = biological target: Neu5Ac(a2-3)Gal(b1-3)GalNAc
# Outline: as §1
# [3] = biological target: Neu5Ac(a2-3)Gal(b1-3)GalNAc(b1-3)Gal(a1-4)Gal(b1-4)Glc
# Outline: as §1
# [4] = biological target: Neu5Ac(a2-3)Gal(b1-3)GalNAc(b1-4)[Neu5Ac(a2-3)]Gal(b1-4)Glc
# Outline: as §1
# [5] = biological target: Neu5Ac(a2-3)Gal(b1-3)GalNAc(b1-4)[Neu5Ac(a2-8)Neu5Ac(a2-3)]Gal(b1-4)Glc
# Outline: as §1
# [6] = biological target: Neu5Ac(a2-3)Gal(b1-3)GalNAc6S
# Outline: as §1
# [7] = biological target: Neu5Ac(a2-3)Gal(b1-3)GlcNAc
# Outline: as §1
# [8] = biological target: Neu5Ac(a2-3)Gal(b1-3)GlcNAc(b1-2)Man
# Outline: as §1
# [9] = biological target: Neu5Ac(a2-3)Gal(b1-3)GlcNAc(b1-2)Man(a1-3)[GlcNAc(b1-4)][Neu5Ac(a2-3)Gal(b1-3)GlcNAc(b1-2)Man(a1-6)]Man(b1-4)GlcNAc(b1-4)GlcNAc
# Outline: as §1
# [10] = biological target: Neu5Ac(a2-3)Gal(b1-3)GlcNAc(b1-2)Man(a1-3)[Neu5Ac(a2-3)Gal(b1-3)GlcNAc(b1-2)Man(a1-6)]Man(b1-4)GlcNAc(b1-4)GlcNAc
# Outline: as §1
# [11] = biological target: Neu5Ac(a2-3)Gal(b1-3)GlcNAc(b1-3)Gal(b1-3)GlcNAc
# Outline: as §1
# [12] = biological target: Neu5Ac(a2-3)Gal(b1-3)GlcNAc(b1-3)Gal(b1-4)GlcNAc
# Outline: as §1
# [13] = biological target: Neu5Ac(a2-3)Gal(b1-3)GlcNAc(b1-3)GalNAc
# Outline: as §1
# [14] = biological target: Neu5Ac(a2-3)Gal(b1-3)GlcNAc(b1-4)Gal(b1-4)Glc
# Outline: as §1
# [15] = biological target: Neu5Ac(a2-3)Gal(b1-3)GlcNAc(b1-6)GalNAc
# Outline: as §1
# [16] = biological target: Neu5Ac(a2-3)Gal(b1-3)GlcNAc6S
# Outline: as §1
# [17] = biological target: Neu5Ac(a2-3)Gal(b1-3)[Fuc(a1-4)]GlcNAc
# Outline: as §1
# [18] = biological target: Neu5Ac(a2-3)Gal(b1-3)[Fuc(a1-4)]GlcNAc(b1-3)Gal(b1-3)[Fuc(a1-4)]GlcNAc
# Outline: as §1
# [19] = biological target: Neu5Ac(a2-3)Gal(b1-3)[Fuc(a1-4)]GlcNAc(b1-3)Gal(b1-4)[Fuc(a1-3)]GlcNAc
# Outline: as §1
# [20] = biological target: Neu5Ac(a2-3)Gal(b1-3)[GlcNAc(b1-6)]GalNAc
# Outline: as §1
# [21] = biological target: Neu5Ac(a2-3)Gal(b1-3)[Neu5Ac(a2-6)]GalNAc
# Outline: as §1
# [22] = biological target: Neu5Ac(a2-3)Gal(b1-3)[Neu5Ac(a2-6)]GlcNAc(b1-3)[Fuc(a1-3)[Gal(b1-4)]GlcNAc(b1-6)]Gal(b1-4)Glc
# Outline: as §1
# [23] = biological target: Neu5Ac(a2-3)Gal(b1-3)]Neu5Ac(a2-3)Gal(b1-4)]GlcNAc
# Outline: as §1
# [24] = biological target: Neu5Ac(a2-3)Gal(b1-4)Glc
# Outline: as §1
# [25] = biological target: Neu5Ac(a2-3)Gal(b1-4)GlcNAc
# Outline: as §1
# [26] = biological target: Neu5Ac(a2-3)Gal(b1-4)GlcNAc(b1-2)Man
# Outline: as §1
# [27] = biological target: Neu5Ac(a2-3)Gal(b1-4)GlcNAc(b1-2)Man(a1-3)[GlcNAc(b1-4)][Neu5Ac(a2-3)Gal(b1-4)GlcNAc(b1-2)Man(a1-6)]Man(b1-4)GlcNAc(b1-4)GlcNAc
# Outline: as §1
# [28] = biological target: Neu5Ac(a2-3)Gal(b1-4)GlcNAc(b1-2)Man(a1-3)[Neu5Ac(a2-3)Gal(b1-4)GlcNAc(b1-2)Man(a1-6)]Man(b1-4)GlcNAc(b1-4)GlcNAc
# Outline: as §1
# [29] = biological target: Neu5Ac(a2-3)Gal(b1-4)GlcNAc(b1-2)Man(a1-3)[Neu5Ac(a2-3)Gal(b1-4)GlcNAc(b1-2)Man(a1-6)]Man(b1-4)GlcNAc(b1-4)[Fuc(a1-6)]GlcNAc
# Outline: as §1
# [30] = biological target: Neu5Ac(a2-3)Gal(b1-4)GlcNAc(b1-2)Man(a1-3)[Neu5Ac(a2-6)Gal(b1-4)GlcNAc(b1-2)Man(a1-6)]Man(b1-4)GlcNAc(b1-4)GlcNAc
# Outline: as §1
# [31] = biological target: Neu5Ac(a2-3)Gal(b1-4)GlcNAc(b1-2)[Neu5Ac(a2-3)Gal(b1-4)GlcNAc(b1-4)]Man(a1-3)[GlcNAc(b1-4)][Neu5Ac(a2-3)Gal(b1-4)GlcNAc(b1-2)[Neu5Ac(a2-3)Gal(b1-4)GlcNAc(b1-6)]Man(a1-6)]Man(b1-4)GlcNAc(b1-4)GlcNAc
# Outline: as §1
# [32] = biological target: Neu5Ac(a2-3)Gal(b1-4)GlcNAc(b1-2)[Neu5Ac(a2-3)Gal(b1-4)GlcNAc(b1-4)]Man(a1-3)[GlcNAc(b1-4)][Neu5Ac(a2-3)Gal(b1-4)GlcNAc(b1-4)Man(a1-6)]Man(b1-4)GlcNAc(b1-4)GlcNAc
# Outline: as §1
# [33] = biological target: Neu5Ac(a2-3)Gal(b1-4)GlcNAc(b1-2)[Neu5Ac(a2-3)Gal(b1-4)GlcNAc(b1-6)]Man(a1-6)[Neu5Ac(a2-3)Gal(b1-4)GlcNAc(b1-2)Man(a1-3)]Man(b1-4)GlcNAc(b1-4)GlcNAc
# Outline: as §1
# [34] = biological target: Neu5Ac(a2-3)Gal(b1-4)GlcNAc(b1-2)[Neu5Ac(a2-3)Gal(b1-4)GlcNAc(b1-6)]Man(a1-6)[Neu5Ac(a2-3)Gal(b1-4)GlcNAc(b1-2)Man(a1-3)][GlcNAc(b1-4)]Man(b1-4)GlcNAc(b1-4)GlcNAc
# Outline: as §1
# [35] = biological target: Neu5Ac(a2-3)Gal(b1-4)GlcNAc(b1-3)Gal
# Outline: as §1
# [36] = biological target: Neu5Ac(a2-3)Gal(b1-4)GlcNAc(b1-3)Gal(b1-3)GlcNAc
# Outline: as §1
# [37] = biological target: Neu5Ac(a2-3)Gal(b1-4)GlcNAc(b1-3)Gal(b1-4)GlcNAc
# Outline: as §1
binder,measurement,setting,value
"AT3G44510(29) (Arabidopsis thaliana), F4J341 (protein) MEEHLQGRIKLHDGRYLAYKERGVPKDDAKFTIVLVHGFGSSKDMNFNVSQELVNEIGIYFVLYDRAGYGESDPNPKRSLKSEAYDVQELADGLEIGSRFYLIGISMGSYTVWSCLKHIPQRLAGVAMVAPVVNFRWPSIPKSLMPKDYRREVAKWSVWIANYFPGLLQWLVTQNMFSTTSMLEKNPVYFNDQDIEVLKHIKGFPMLTKEKLRERGVFGTLRSDFLVAFGDWDFDPADLPDPSLSGPEKGSSSVHIWQGYEDKVMPFQLQRCLCRKLPWIRYHEVPKGGHLIVHYDGICDAILKSLLLGEDLPMYKPKAVITEPA",glycan array binding signal (z-score),[1],0.208
same,glycan array binding signal (z-score),[2],0.122
same,glycan array binding signal (z-score),[3],-0.646
same,glycan array binding signal (z-score),[4],-0.09
same,glycan array binding signal (z-score),[5],-0.512
same,glycan array binding signal (z-score),[6],-0.737
same,glycan array binding signal (z-score),[7],0.49
same,glycan array binding signal (z-score),[8],0.825
same,glycan array binding signal (z-score),[9],-0.861
same,glycan array binding signal (z-score),[10],0.213
same,glycan array binding signal (z-score),[11],-0.556
same,glycan array binding signal (z-score),[12],-0.064
same,glycan array binding signal (z-score),[13],-0.522
same,glycan array binding signal (z-score),[14],-0.405
same,glycan array binding signal (z-score),[15],0.556
same,glycan array binding signal (z-score),[16],-0.564
same,glycan array binding signal (z-score),[17],-0.723
same,glycan array binding signal (z-score),[18],-0.151
same,glycan array binding signal (z-score),[19],0.013
same,glycan array binding signal (z-score),[20],-0.473
same,glycan array binding signal (z-score),[21],0.259
same,glycan array binding signal (z-score),[22],-0.517
same,glycan array binding signal (z-score),[23],0.053
same,glycan array binding signal (z-score),[24],0.086
same,glycan array binding signal (z-score),[25],0.193
same,glycan array binding signal (z-score),[26],-0.952
same,glycan array binding signal (z-score),[27],0.286
same,glycan array binding signal (z-score),[28],-0.22
same,glycan array binding signal (z-score),[29],-0.183
same,glycan array binding signal (z-score),[30],2.04
same,glycan array binding signal (z-score),[31],-0.124
same,glycan array binding signal (z-score),[32],-0.202
same,glycan array binding signal (z-score),[33],0.09
same,glycan array binding signal (z-score),[34],-0.209
same,glycan array binding signal (z-score),[35],0.688
same,glycan array binding signal (z-score),[36],0.06
same,glycan array binding signal (z-score),[37],0.145

# A second format for some results above.
binder | measurement | setting | value
AT3G44510(29) (Arabidopsis thaliana), F4J341 (protein) MEEHLQGRIKLHDGRYLAYKERGVPKDDAKFTIVLVHGFGSSKDMNFNVSQELVNEIGIYFVLYDRAGYGESDPNPKRSLKSEAYDVQELADGLEIGSRFYLIGISMGSYTVWSCLKHIPQRLAGVAMVAPVVNFRWPSIPKSLMPKDYRREVAKWSVWIANYFPGLLQWLVTQNMFSTTSMLEKNPVYFNDQDIEVLKHIKGFPMLTKEKLRERGVFGTLRSDFLVAFGDWDFDPADLPDPSLSGPEKGSSSVHIWQGYEDKVMPFQLQRCLCRKLPWIRYHEVPKGGHLIVHYDGICDAILKSLLLGEDLPMYKPKAVITEPA | glycan array binding signal (z-score) | [29] | -0.183
same | glycan array binding signal (z-score) | [30] | 2.04
